The list does not hold the whole screen: it covers a few groups of compounds. Other doses and runs of a compound may be missing. T/C: endpoint of the treated group in % of that of the vehicle group. For survival time, this PubChem deposit counts one and a half times the control or more as active, and values a quarter to a half above the control carry no call in these data; other NCI protocols may use other cut-offs. Some entries show no survivor count and are marked so; the dose need not have been tolerated. Schedules are NCI's codes, read here as Q, the interval in days (D) or hours (H), X, the number of doses. Marks such as (2×) count equal records among those shown. Some doses were run more than once; their values stand side by side, smallest first.
Test system: BDF1 mice, P388 leukemia (terephthalanilide-resistant), survival T/C
Assay: NCI In Vivo Anticancer Drug Screen. Data for tumor model P388 Leukemia resistant to A Terephthalanilide; NSC 38280 (intraperitoneal) in B6D2F1 (BDF1) mice
Details: T/C endpoint: median survival time, schedule: Q01DX010 (ip), vehicle: saline, higher T/C = longer survival
Description: The antitumor activity of compounds was measured in mice bearing transplantable tumors. Survival or tumor size were measured and the results are expressed as the measurement made in the treated group (T) divided by the measurement made in the vehicle treated control group (C). The tumor model used in this assay is P388 Leukemia resistant to A Terephthalanilide; NSC 38280 (intraperitoneal) in B6D2F1 (BDF1) mice

For CN(CCCl)CCCl, the T/C (dose: 0.13 mg/kg/injection) was 118 [survivor count not shown] and 137 % of control [survivor count not shown], the T/C (dose: 0.25 mg/kg/injection) was 131 [survivor count not shown] and 137 % of control [survivor count not shown] and the T/C (dose: 0.5 mg/kg/injection) was 137 % of control [survivor count not shown] (2×). For the same molecule, the T/C (dose: 1.0 mg/kg/injection) was 87 % of control [survivor count not shown].

Reference: PubChem BioAssay AID338 (DTP/NCI, 2004)
